Reference: PMC12866766
These are yes or no findings as the source states them, for the method shown. Binding seen in cells or lysates may run through a third protein. Some binding calls cover weakened binding; strength is not graded here. Values belong to the molecule of their own block, whether it stands above or below them.

By UniProt entry, the sequences of proteins in these tests, tags left out.
UniProt P28033: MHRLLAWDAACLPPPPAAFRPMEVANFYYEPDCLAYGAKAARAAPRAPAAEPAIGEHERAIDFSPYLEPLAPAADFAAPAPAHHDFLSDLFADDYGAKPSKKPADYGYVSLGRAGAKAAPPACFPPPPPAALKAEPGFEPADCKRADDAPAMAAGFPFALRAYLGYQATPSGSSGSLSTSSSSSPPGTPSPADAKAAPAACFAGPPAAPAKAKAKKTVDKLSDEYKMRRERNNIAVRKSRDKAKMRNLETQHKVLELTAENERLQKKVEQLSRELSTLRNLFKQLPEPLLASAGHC
UniProt Q04207: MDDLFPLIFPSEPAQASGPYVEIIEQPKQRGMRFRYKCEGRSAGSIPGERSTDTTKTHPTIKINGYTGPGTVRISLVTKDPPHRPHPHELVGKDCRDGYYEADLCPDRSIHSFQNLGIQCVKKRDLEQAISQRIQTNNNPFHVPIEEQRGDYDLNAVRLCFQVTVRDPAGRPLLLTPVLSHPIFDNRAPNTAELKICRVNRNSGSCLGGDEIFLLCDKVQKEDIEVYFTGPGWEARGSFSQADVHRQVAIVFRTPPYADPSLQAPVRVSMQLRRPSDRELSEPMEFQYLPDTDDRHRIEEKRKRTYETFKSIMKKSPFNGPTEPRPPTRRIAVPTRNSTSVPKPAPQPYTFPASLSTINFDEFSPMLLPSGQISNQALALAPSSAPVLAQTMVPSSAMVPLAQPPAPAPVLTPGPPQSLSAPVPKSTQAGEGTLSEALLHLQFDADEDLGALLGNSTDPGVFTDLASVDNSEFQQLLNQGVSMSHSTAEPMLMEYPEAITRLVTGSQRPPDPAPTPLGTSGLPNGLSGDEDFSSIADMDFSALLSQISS

Experiments:
Assay in all cases: co-IP; endogenous proteins in mBMDM lysates (cells with or without stimulation), precleared, IP overnight at 4 °C with anti-CEBPB, anti-CD74, anti-P65 or control IgG, protein A agarose beads, five washes with lysis buffer, immunoblot
[1] = molecular target: CCAAT/enhancer-binding protein beta (CEBPB) (mouse (endogenous in mBMDMs)) (UniProt P28033)
[2] = molecular target: T1, CD74 (invariant chain, Ii) (mouse (endogenous in mBMDMs)) (UniProt P04441)
T1 sequence: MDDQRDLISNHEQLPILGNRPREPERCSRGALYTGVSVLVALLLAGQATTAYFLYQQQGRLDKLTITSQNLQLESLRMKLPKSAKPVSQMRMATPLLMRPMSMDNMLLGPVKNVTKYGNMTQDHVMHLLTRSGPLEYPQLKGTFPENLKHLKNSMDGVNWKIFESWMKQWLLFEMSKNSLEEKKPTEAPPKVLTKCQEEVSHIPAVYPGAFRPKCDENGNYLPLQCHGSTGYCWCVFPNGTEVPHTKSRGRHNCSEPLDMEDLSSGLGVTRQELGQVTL

[3] = molecular target: P65 (NF-kB pathway component p65) (mouse (endogenous in mBMDMs)) (UniProt Q04207)

binding [1]: binds
Molecule: P65 (NF-kB pathway component p65) (from UniProt Q04207 1-549)

binding [2]: no binding | binding [3]: binds
Molecule: CCAAT/enhancer-binding protein beta (CEBPB) (from UniProt P28033 1-296)

binding [1]: no binding
B1: CD74 (invariant chain, Ii) (receptor, UniProt P04441 1-279)
chain: T1 sequence
